From PubChem BioAssay AID1347423 (Functional Genomics Laboratory (NCATS/FGL), 2020)
In all, about 52,000 sequences went through this assay and about 210 (0.4%) were called active.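 How the source made its calls: active means gene whose silencing raises cell survival under the drug, median off-target-corrected z-score across its silencing RNAs 2 or more; inactive means the rest.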 The list shows a part of the results.

Assay: Resistance to Poly (ADP-Ribose) Polymerase inhibitor: Gene Identification via Genome-wide siRNA Screen
Conditions: mouse BRCA2 R2336H ES cells, olaparib, CellTiter-Glo viability; active compounds read high
Method in brief: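 Genome-wide siRNA screen (3 siRNAs/gene, 20 nM) in mouse ES cells carrying hypomorphic BRCA2 R2336H; olaparib 500 nM added 48 h post-transfection, CellTiter-Glo viability 72 h later. Normalized to plate-median negative control; MAD z-scores, gene median, seed-adjusted.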

Sequence | z-score
GGAAAUUCUGAGGAAGAUUTT against Olfr744 | inactive: 0.204
GGCCUGAAAUAUAUGCUGGTT against Cst7 | inactive: 0.761
GGUAAUGAUACCUUGAAUGTT against H60 | inactive: 1.88
GGAGUGGAAGAAGAAGUAUTT against Centg3 | inactive: -1.56
GGAUUUAGCCAAUCAAUCUTT against Cdc14b | inactive: 0.657
GGUGAAGUCCCAGCUUGAATT against Cstb | inactive: -1.07
GGAAAUCCAUGAGAAGGUGTT against Ctbp2 | inactive: -1.18
GGCUGAAUGACUGCACUGGTT against Vamp5 | inactive: 1.5
GGAUGUGGAUGCUUACACCTT against Cdc23 | inactive: -2.31
CGGCUACGAGUGUGAACUGTT against Fgf7 | inactive: -0.206
GCCAGUUUUGGUAUCCCGUTT against A330042H22 | inactive: 1.21
GGCUUAUAUCUGAUUGAUGTT against Rom1 | inactive: -0.235
CCACCUUUACGAUAAUGAUTT against 1700108L22Rik | inactive: 0.442
GGUGGACUUCAACCUGAUUTT against Nodal | inactive: -0.636
GUGUGAACAGAGGCAGAAATT against Xlr3a | inactive: -1.26
GGCAAUUGGCUUAAACACATT against Serpinb9c | inactive: 0.166
GGAGCAUCAUUAUUCUGCATT against Gm527 | inactive: 0.145
GCCGGCAACACAUUUCUGUTT against 5330439J01Rik | inactive: -0.131
CCAAUAUCUCCAAAUAGAATT against Atp8b1 | inactive: 1.4
GGAUUUCCCAGGAAGCGAATT against 4-Sep | inactive: -0.724
GGUGAAGCAGUUUGACUUCTT against Rbm18 | inactive: 1.17
GGAGGUUUAUAAAAUCGACTT against Tgfb2 | inactive: -0.718
GGCAAAGCACUGGUUGUGUTT against C130053K05Rik | inactive: 0.195
UGAUGCUAAGACUGAACCATT against Olfr541 | inactive: -0.579
GGAAGACAAUGCAAUAAUUTT against 2810460C24Rik | inactive: -0.0666
GGACAAAAGAAAAGUAUCGTT against Cdx4 | inactive: -0.927
GGCGAUCCACAAGUACAAUTT against Polb | inactive: -0.226
GGGACUCUGAUGGUUUUGATT against Dapp1 | inactive: -0.534
GGCAGAAUUUUCCAACUGATT against Tisp78 | inactive: 1.84

Part of the list above, in markdown:

| Sequence | z-score |
| --- | --- |
| GGCUGAAUGACUGCACUGGTT against Vamp5 | inactive: 1.5 |
| CCACCUUUACGAUAAUGAUTT against 1700108L22Rik | inactive: 0.442 |
